Reference: PubChem BioAssay AID504793 (Drosophila RNAi Screening Center, 2011)
The deposit covers about 23,000 reagents; below is a random part of those with a known target gene and a result. In the full data, 62 (0.27%) got an active call. 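Calls come from follow-up tests whose scores are not deposited, so confirmed genes may have low counts here; counts are not normalised per plate.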 The raw values are shown without normalisation. A plus sign joins genes that one reagent is predicted to hit.

- Aim: 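Genes required for cells to halt at G2/M after double-strand DNA breaks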 (primary screen)
- Cell system: Drosophila S2R+ cells
- Knock-down reagent: long dsRNA against Drosophila genes, about 0.25 µg dsRNA per well
- Timing: 4 days of dsRNA, then 4 hours of drug before read-out
- Treatment: doxorubicin 0.5 µM for 4 hours to cause double-strand breaks, in cells also given a low, harmless dose of dsRNA against nbs to sensitise the assay
- Measured: 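Per-well count of mitotic cells stained for phospho-histone H3 after doxorubicin exposure, used as mitotic index; counts are raw and not normalised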
- Direction: mitotic cells: higher = more cells in mitosis, weaker G2 arrest
- Hit rule: 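Genes are called active only when high mitotic counts were reproduced with independent dsRNAs and mitosis was checked for delay without damage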
- Meaning of the calls: active = confirmed in follow-up tests; inactive = not confirmed

| target gene | amplicon | mitotic cells, replicate 1 | outcome |
| --- | --- | --- | --- |
| alpha-Est4aPsi (pseudo) | DRSC12473 | 3 | inactive |
| Rbpn-5 (Rabaptin-5) | DRSC04440 | 3 | inactive |
| Rbpn-5 (Rabaptin-5) | DRSC26142 | 6 | inactive |
| Rbf2 (Retinoblastoma-family protein 2) | DRSC16816 | 3 | inactive |
| gl (glass) | DRSC27242 | 3 | inactive |
| CG1143 | DRSC08188 | 7 | inactive |
| Tti1 (Telo2 interacting protein 1) | DRSC15163 | 7 | inactive |
| Tti1 (Telo2 interacting protein 1) | DRSC27694 | 6 | inactive |
| Phm (Peptidylglycine-alpha-hydroxylating monooxygenase) | DRSC04639 | 8 | inactive |
| CG4074 + CG4186 | DRSC11753 | 3 | inactive |
| CG6138 | DRSC02933 | 4 | inactive |
| TfIIA-L (Transcription factor IIA L) | DRSC16882 | 11 | inactive |
| Ube4A (Ubiquitination factor E4A) | DRSC02004 | 4 | inactive |
| CG6885 | DRSC10740 | – | inactive |
| CG14329 | DRSC14808 | 15 | inactive |
| Cnx99A (Calnexin 99A) | DRSC25426 | 2 | inactive |
| fz4 (frizzled 4) | DRSC18780 | 9 | inactive |
| CG12659 | DRSC17862 | 12 | inactive |
| CG12659 | DRSC27326 | 6 | inactive |
| CG32582 (retired record) | DRSC19114 | 6 | inactive |
| Or85e (retired record) | DRSC16768 | 3 | inactive |
| dib (disembodied) | DRSC08711 | 11 | inactive |
| dib (disembodied) | DRSC26980 | 6 | inactive |
| CG40005 (retired record) + cta | DRSC03763 | 7 | inactive |
| RpS30 (Ribosomal protein S30) | DRSC15119 | 5 | inactive |
| RpS30 (Ribosomal protein S30) | DRSC26355 | 9 | inactive |
| beat-VII (beaten path VII) | DRSC13780 | 5 | inactive |
| beat-VII (beaten path VII) | DRSC14743 | 13 | inactive |
| beat-VII (beaten path VII) | DRSC22825 | 8 | inactive |
| Dhc62B (Dynein heavy chain at 62B) | DRSC08655 | 8 | inactive |
| Pgant2 (Polypeptide N-Acetylgalactosaminyltransferase 2) | DRSC00587 | 5 | inactive |
| BBS8 (Bardet-Biedl syndrome 8) | DRSC00360 | 3 | inactive |
| BBS8 (Bardet-Biedl syndrome 8) | DRSC27758 | 10 | inactive |
| Sce (Sex combs extra) | DRSC23442 | 8 | inactive |
| CG16837 | DRSC04283 | 5 | inactive |
| CG16837 | DRSC26178 | 131 | inactive |
| Alg3 (ALG3, alpha-1,3- mannosyltransferase) | DRSC04700 | 4 | inactive |
| CG13869 + CG11099 | DRSC06428 | 5 | inactive |
| CG13869 + CG11099 | DRSC24218 | 7 | inactive |
| CG10339 | DRSC04065 | 5 | inactive |
| GrlHz (Gustatory receptor-like Holozoa) | DRSC04424 | 7 | inactive |
| Wwox (WW domain containing oxidoreductase) | DRSC03030 | 12 | inactive |
| Wwox (WW domain containing oxidoreductase) | DRSC22872 | 7 | inactive |
| Wwox (WW domain containing oxidoreductase) | DRSC25933 | 10 | inactive |
| FucT6 (alpha1,6-fucosyltransferase) | DRSC19848 | 6 | inactive |
| FucT6 (alpha1,6-fucosyltransferase) | DRSC26057 | 7 | inactive |

Individual results from the entries so far.
Wwox (WW domain containing oxidoreductase) [DRSC03030], outcome = inactive
Value of CG40005 (retired record) + cta [DRSC03763] under “outcome”: inactive
For “outcome”, CG6885 [DRSC10740] is entered as inactive
CG14329 [DRSC14808], outcome = inactive
Value of Tti1 (Telo2 interacting protein 1) [DRSC27694] in “mitotic cells, replicate 1”: 6
